Earlier results, collected in patent EP0833161A1, “Method for maintaining a continuously-saturated level of ascorbic acid in a patient's body” (Ordman, Alfred B., priority 1996, dated 1998).
At least one read-out could not be matched to a standard name with certainty.

Details: 500 mg dose, average person; cited from earlier work

Structure (SMILES): O=C1O[C@H]([C@@H](O)CO)C(O)=C1O [vitamin C, ascorbic acid]
- fraction of dose excreted prior to metabolization: 40%
